Source: PubChem BioAssay AID1259331 (Drosophila RNAi Screening Center, 2017)
Assay: 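Knock-downs that alter ATP level after a high zinc chloride dose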 (primary screen). Cell system: Drosophila S2R+ cells. Knock-down reagent: long dsRNA against Drosophila genes. Time to read-out: 5 days (4 days knock-down, then 1 day zinc). Challenge: zinc chloride at 15 mM final level for 1 day. Detection: 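Luminescent ATP assay standing in for viability; Z score is the mean over three replicate plates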. Direction: mean Z score: higher = more ATP than other wells, better survival under zinc; ATP luminescence: higher = more ATP, more viable cells. Call rule: 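a reagent is called a hit when its Z score is above 1.5 or below -1.5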. Meaning of the calls: active = hit, ATP up or down; inactive = not a hit.
Shown is a random part of about 3,100 deposited reagents. Over the whole deposit, 126 (4.1%) were called active. 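Calls are per reagent; zinc was so toxic that few knock-downs lowered ATP further, so most hits raise ATP.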 Raw values are not corrected between plates. Entries without a mark were called inactive. The numbers tell different reagents against one gene apart. Names joined by + are all predicted targets of the reagent. Not given: the amount of reagent.

Target gene	dsRNA no.	mean Z score	ATP luminescence, replicate 1	ATP luminescence, replicate 2
Amnionless	1	-0.581	38428	39197
robo2	1	-0.389	42011	39988
robo2	2	-0.479	96618	64848
dnt	1	-0.476	41119	53156
dnt	2	-0.591	43253	39233
hbt + CG43779	1	-0.072	46657	47665
hbt + CG43779	2	-0.436	54818	50069
CG43155	1	0.269	70616	70408
Ir25a	1	0.226	55762	39318
Ir25a	2	1.23	78153	77645
CG1494	1	-0.02	33662	51268
CG13784	1	-0.179	38445	42696
OtopLc	1	-0.601	56002	56156
OtopLc	2	-0.124	60649	58300
Sugb	1	-0.0796	31450	29084
Sugb	2	-0.327	52367	54579
Hacd1	1	-0.228	49555	56672
CG14196	1	0.043	41393	45206
CG14196	2	0.00606	56619	57648
Vmat	1	0.269	54613	62353
kek1	1	0.00658	53687	37125
kek1	2	0.154	49605	50333
kek1	3	-0.283	45851	43314
tty	1	-0.316	40063	44462
tty	2	0.0501	64799	52915
stol	1	0.0532	49658	38868
stol	2	0.301	56173	65021
CG7458	1	-0.385	37519	40201
CG7458	2	-0.442	40073	44222

Targets above whose gene name starts with K or k:
Target gene	dsRNA no.	mean Z score	ATP luminescence, replicate 1	ATP luminescence, replicate 2
kek1	1	0.00658	53687	37125
kek1	2	0.154	49605	50333
kek1	3	-0.283	45851	43314

Continued:
Target gene	dsRNA no.	mean Z score	ATP luminescence, replicate 1	ATP luminescence, replicate 2
Sr-CII	1	-0.525	58763	65314
Sr-CII	2	-0.274	52401	51407
kirre	1	-0.912	47007	54939
kirre	2	-0.195	57460	56894
Rh2	1	-0.312	38753	52350
Rh2	2	-0.208	51077	53756
Tpc2	1	-0.848	26119	37896
CG15614	1	-0.157	65794	68915
CG5715	1	0.877	44236	69979
CG5715	2	-0.389	43314	46794
Elk	1	-0.412	25413	31896
Elk	2	-0.0571	50241	52367
CG1632	1	-0.906	60752	52504
CG1632	2	-0.513	57099	58008
List	1	1.07	85261	88479
List	2	-0.0599	57313	53310
PGRP-LE	1	-0.123	42973	45320
ppk18	1	-0.855	35736	34313
ppk18	2	0.0954	54167	36679
ppk18	3	-0.0244	57682	53952
CG33203	1	-0.128	59226	68727
CG33203	2	0.643	70116	72517
CG1824	1	0.819	78554	80716
CG1824	2	-0.313	57357	57768
TM9SF4	1	-0.339	48680	54368
TM9SF4	2	0.254	66000	61972
asRNA:CR43429 + Impbeta11	1	0.189	58626	72242
asRNA:CR43429 + Impbeta11	2	1.21	80784	76888
Alg7	1	0.0249	54716	58542
Alg7	2	0.986	65039	48234
ClC-b	1	-0.178	64640	66223
CG1801	1	0.118	41874	44325
CG14234	1	-0.6	80115	57717
CG14234	2	-0.187	40742	40759
Lgr3	1	-0.447	43297	40022
Lgr3	2	0.883	44825	68606
ste24b	1	1.43	88469	96601
ste24b	2	0.505	62107	61935
PIG-O	1	-0.599	24790	26719
PIG-O	2	-0.787	39679	42645
